Results taken from the supplement of paper PMC4604168 (melanoma cell lines).
Some of the results follow. Repeats are few or missing, and single values can be far off.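 The apoptosis fraction was the count of cleaved-PARP antibody-stained nuclei relative to all DNA-stained nuclei, imaged in 1,536-well plates. Screening doses were set so most cells survived, and baseline and induced cleaved-PARP levels vary greatly across cell lines.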

Tests used:
Assay in all cases: cleaved PARP positive nuclei fraction relative to DMSO control; melanoma cells; higher = more apoptosis
Conditions in all cases: library dose: low library concentration; 72 h
[1] = tested on: WM115
[2] = tested on: WM1716
[3] = tested on: WM1745
[4] = tested on: WM3526
[5] = tested on: WM3619
[6] = tested on: WM451Lu

SMILES | cleaved PARP positive nuclei fraction [1] | cleaved PARP positive nuclei fraction [2] | cleaved PARP positive nuclei fraction [3] | cleaved PARP positive nuclei fraction [4] | cleaved PARP positive nuclei fraction [5] | cleaved PARP positive nuclei fraction [6]
C[C@]12O[C@H](C[C@]1(O)CO)n1c3ccccc3c3c4c(c5c6ccccc6n2c5c31)CNC4=O [Lestaurtinib] + C=C(c1ccc(C(=O)O)cc1)c1cc2c(cc1C)C(C)(C)CCC2(C)C [Bexarotene] (first compound 0.004 µM, partner dose 2 µM) | 129% | 213% | 107% | 57.8% | 82.1% | 85%
C#Cc1cccc(Nc2ncnc3cc(OCCOC)c(OCCOC)cc23)c1 [erlotinib] + C[As](C)SC[C@H](NC(=O)CC[C@H](N)C(=O)O)C(=O)NCC(=O)O [Darinaparsin] (first compound 0.8 µM, partner dose 0.4 µM) | 125% | 146% | 110% | 236% | 101% | 230%
C[As](C)SC[C@H](NC(=O)CC[C@H](N)C(=O)O)C(=O)NCC(=O)O [Darinaparsin] + CO[C@@H]1[C@H](N(C)C(=O)c2ccccc2)C[C@H]2O[C@]1(C)n1c3ccccc3c3c4c(c5c6ccccc6n2c5c31)C(=O)NC4 [Midostaurin] (first compound 0.4 µM, partner dose 0.08 µM) | 70% | 109% | 93.4% | 39.7% | 95.8% | 84.6%
C[As](C)SC[C@H](NC(=O)CC[C@H](N)C(=O)O)C(=O)NCC(=O)O [Darinaparsin] + Cn1cncc1[C@@](N)(c1ccc(Cl)cc1)c1ccc2c(c1)c(-c1cccc(Cl)c1)cc(=O)n2C [tipifarnib] (first compound 0.4 µM, partner dose 0.01 µM) | 186% | 43.7% | 93% | 130% | 105% | 97.5%
NC(=O)Nc1cc(-c2cccc(F)c2)sc1C(=O)N[C@H]1CCCNC1 + Cc1cc(SCc2sc(-c3ccc(C(F)(F)F)c(F)c3)nc2C)ccc1OCC(=O)O [GW0742] (first compound 0.02 µM, partner dose 2 µM) | 69.9% | 131% | 99% | 150% | 228% | 64.1%
Cc1cc(Nc2cc(N3CCN(C)CC3)nc(Sc3ccc(NC(=O)C4CC4)cc3)n2)n[nH]1 [Tozasertib] + C[C@]12O[C@H](C[C@]1(O)CO)n1c3ccccc3c3c4c(c5c6ccccc6n2c5c31)CNC4=O [Lestaurtinib] (first compound 0.006 µM, partner dose 0.004 µM) | 130% | 101% | 110% | 55.3% | 70% | 112%
Clc1ccc(Nc2nnc(Cc3ccncc3)c3ccccc23)cc1 [vatalanib] + Cc1cc(SCc2sc(-c3ccc(C(F)(F)F)c(F)c3)nc2C)ccc1OCC(=O)O [GW0742] (first compound 2 µM, partner dose 2 µM) | 61.7% | 80.5% | 118% | 149% | 86.7% | 76.7%
CC(=O)c1c(C)c2cnc(Nc3ccc(N4CCNCC4)cn3)nc2n(C2CCCC2)c1=O [palbociclib] + C[As](C)SC[C@H](NC(=O)CC[C@H](N)C(=O)O)C(=O)NCC(=O)O [Darinaparsin] (first compound 0.04 µM, partner dose 0.4 µM) | 108% | 164% | 135% | 64.4% | 145% | 52.3%
C[As](C)SC[C@H](NC(=O)CC[C@H](N)C(=O)O)C(=O)NCC(=O)O [Darinaparsin] + CN(C)S(=O)(=O)c1ccc2c(c1)/C(=C/c1cc3c([nH]1)CCCC3)C(=O)N2 [SU6656] (first compound 0.4 µM, partner dose 0.4 µM) | 65.8% | 44.6% | 87.2% | 64% | 97.4% | 49.8%
Nc1ncn([C@H]2C[C@H](O)[C@@H](CO)O2)c(=O)n1 [decitabine] + C[As](C)SC[C@H](NC(=O)CC[C@H](N)C(=O)O)C(=O)NCC(=O)O [Darinaparsin] (first compound 0.1 µM, partner dose 0.4 µM) | 61.4% | 206% | 92.8% | 48% | 99.2% | 97.6%
C[C@]12O[C@H](C[C@]1(O)CO)n1c3ccccc3c3c4c(c5c6ccccc6n2c5c31)CNC4=O [Lestaurtinib] + Nc1ncn([C@H]2C[C@H](O)[C@@H](CO)O2)c(=O)n1 [decitabine] (first compound 0.004 µM, partner dose 0.1 µM) | 115% | 75% | 109% | 198% | 106% | 127%
N.N.[Cl][Pt][Cl] [cisplatin] + CCN(CC)CCCCNc1ncc2cc(-c3cc(OC)cc(OC)c3)c(NC(=O)NC(C)(C)C)nc2n1 [PD173074] (first compound 1.6 µM, partner dose 0.1 µM) | 48% | 73.6% | 97.2% | 51.2% | 91.8% | 25.8%
CO[C@H]1C[C@@H]2CC[C@@H](C)[C@@](O)(O2)C(=O)C(=O)N2CCCC[C@H]2C(=O)O[C@H]([C@H](C)C[C@@H]2CC[C@@H](OCCO)[C@H](OC)C2)CC(=O)[C@H](C)/C=C(\C)[C@@H](O)[C@@H](OC)C(=O)[C@H](C)C[C@H](C)/C=C/C=C/C=C/1C [everolimus] + O=C(Oc1ccc([N+](=O)[O-])cc1)N1CCC(C(O)(c2ccc3c(c2)OCO3)c2ccc3c(c2)OCO3)CC1 [JZL184] (first compound 0.02 µM, partner dose 1 µM) | 192% | 104% | 106% | 97.2% | 151% | 659%
CC1(C)CCC(c2ccc(Cl)cc2)=C(CN2CCN(c3ccc(C(=O)NS(=O)(=O)c4ccc(N[C@H](CCN5CCOCC5)CSc5ccccc5)c(S(=O)(=O)C(F)(F)F)c4)cc3)CC2)C1 + Cc1cc(SCc2sc(-c3ccc(C(F)(F)F)c(F)c3)nc2C)ccc1OCC(=O)O [GW0742] (first compound 0.4 µM, partner dose 2 µM) | 193% | 146% | 1410% | 75.5% | 195% | 110%
C[C@]1(c2nc3c(C(N)=O)cccc3[nH]2)CCCN1 [Veliparib] + Cc1cc(SCc2sc(-c3ccc(C(F)(F)F)c(F)c3)nc2C)ccc1OCC(=O)O [GW0742] (first compound 1.4 µM, partner dose 2 µM) | 75% | 79.3% | 100% | 144% | 75.3% | 60.9%
CN(C)S(=O)(=O)c1ccc2c(c1)/C(=C/c1cc3c([nH]1)CCCC3)C(=O)N2 + Cc1cc(SCc2sc(-c3ccc(C(F)(F)F)c(F)c3)nc2C)ccc1OCC(=O)O [GW0742] (first compound 0.4 µM, partner dose 2 µM) | 164% | 90.7% | 141% | 70.1% | 85.3% | 321%
Cc1cn(-c2cc(NC(=O)c3ccc(C)c(Nc4nccc(-c5cccnc5)n4)c3)cc(C(F)(F)F)c2)cn1 [nilotinib] + Cn1cc(C2=C(c3cn(C4CCN(Cc5ccccn5)CC4)c4ccccc34)C(=O)NC2=O)c2ccccc21 [Enzastaurin] (first compound 0.2 µM, partner dose 0.8 µM) | 48.4% | 338% | 105% | 45.3% | 119% | 147%
O=c1[nH]nc(Sc2ncc([N+](=O)[O-])s2)n1-c1ccc2c(c1)OCCO2 + Cc1cc(SCc2sc(-c3ccc(C(F)(F)F)c(F)c3)nc2C)ccc1OCC(=O)O [GW0742] (first compound 0.2 µM, partner dose 2 µM) | 129% | 45.8% | 79.6% | 192% | 9.26% | 61.6%
O=C(Nc1ccccc1)c1cc([N+](=O)[O-])ccc1Cl + C/C(O)=C(\C#N)C(=O)Nc1cc(Br)ccc1Br [LFM-A13] (first compound 2 µM, partner dose 2 µM) | 305% | 147% | 115% | 34.4% | 72.1% | 168%
N.N.[Cl][Pt][Cl] [cisplatin] + O=C(O)[C@@H]1[O][Sb](=[O])([O][Sb]2(=[O])[O][C@H]([C@H](O)CO)[C@H](O)[C@H](C(=O)O)[O]2)[O][C@H]([C@H](O)CO)[C@@H]1O [stibogluconate] (first compound 1.6 µM, partner dose 2 µM) | 238% | 165% | 111% | 46.8% | 99.4% | 126%
C[As](C)SC[C@H](NC(=O)CC[C@H](N)C(=O)O)C(=O)NCC(=O)O [Darinaparsin] + COc1ccc(Cl)c(Nc2nc3ccccc3nc2NS(=O)(=O)c2cccc(NC(=O)C(C)(C)N)c2)c1 [XL147] (first compound 0.4 µM, partner dose 0.8 µM) | 58.3% | 146% | 102% | 94.5% | 98.9% | 197%
C[C@]12O[C@H](C[C@]1(O)CO)n1c3ccccc3c3c4c(c5c6ccccc6n2c5c31)CNC4=O [Lestaurtinib] + C#Cc1cccc(Nc2ncnc3cc(OCCOC)c(OCCOC)cc23)c1 [erlotinib] (first compound 0.004 µM, partner dose 0.8 µM) | 78.8% | 1130% | 101% | 251% | 105% | 76.3%
C[C@]1(c2nc3c(C(N)=O)cccc3[nH]2)CCCN1 [Veliparib] + C/C(O)=C(\C#N)C(=O)Nc1cc(Br)ccc1Br [LFM-A13] (first compound 1.4 µM, partner dose 2 µM) | 116% | 89.6% | 134% | 66.5% | 80.6% | 48.8%
COCC[n+]1c2c(n(Cc3cnccn3)c1C)C(=O)c1ccccc1C2=O + Cc1cc(SCc2sc(-c3ccc(C(F)(F)F)c(F)c3)nc2C)ccc1OCC(=O)O [GW0742] (first compound 0.0004 µM, partner dose 2 µM) | 44.5% | 105% | 88.9% | 68.4% | 74.4% | 98.6%
Cc1cn(-c2cc(NC(=O)c3ccc(C)c(Nc4nccc(-c5cccnc5)n4)c3)cc(C(F)(F)F)c2)cn1 [nilotinib] + O=C(Oc1ccc([N+](=O)[O-])cc1)N1CCC(C(O)(c2ccc3c(c2)OCO3)c2ccc3c(c2)OCO3)CC1 [JZL184] (first compound 0.2 µM, partner dose 1 µM) | 64.2% | 121% | 91.5% | 88.5% | 93.4% | 28.5%

Reformatted as a markdown table: entries from further up

| SMILES | cleaved PARP positive nuclei fraction [1] | cleaved PARP positive nuclei fraction [2] | cleaved PARP positive nuclei fraction [3] | cleaved PARP positive nuclei fraction [4] | cleaved PARP positive nuclei fraction [5] | cleaved PARP positive nuclei fraction [6] |
| --- | --- | --- | --- | --- | --- | --- |
| Cc1cc(Nc2cc(N3CCN(C)CC3)nc(Sc3ccc(NC(=O)C4CC4)cc3)n2)n[nH]1 [Tozasertib] + C[C@]12O[C@H](C[C@]1(O)CO)n1c3ccccc3c3c4c(c5c6ccccc6n2c5c31)CNC4=O [Lestaurtinib] (first compound 0.006 µM, partner dose 0.004 µM) | 130% | 101% | 110% | 55.3% | 70% | 112% |
| Clc1ccc(Nc2nnc(Cc3ccncc3)c3ccccc23)cc1 [vatalanib] + Cc1cc(SCc2sc(-c3ccc(C(F)(F)F)c(F)c3)nc2C)ccc1OCC(=O)O [GW0742] (first compound 2 µM, partner dose 2 µM) | 61.7% | 80.5% | 118% | 149% | 86.7% | 76.7% |
